Experimental data: patent US20060121083A1 (priority 2003, published 2006)

Experiment: Peptide: Dacron binding assay (unbound fraction by HPLC)
[1] = graft soaked in 50 micrograms/mL peptide solution

| Molecule | Fraction of 50 micrograms peptide bound to Dacron graft (after 5 hours soaking (data not shown)) [%] | Dacron binding relative to RIP [1] | Mean bound amount of peptide on Dacron graft [1] | Peptide bound to the graft prior to implantation (graft soaked in 50 micrograms/mL) [micrograms] |
| --- | --- | --- | --- | --- |
| CC(C)C[C@H](NC(=O)[C@H](C)N)C(=O)N[C@@H](Cc1c[nH]c2ccccc12)C(=O)N[C@@H](CCCCN)C(=O)N[C@H](C(=O)N[C@@H](CC(C)C)C(=O)N[C@@H](CC(C)C)C(=O)N[C@@H](CCCCN)C(=O)N[C@@H](CCCCN)C(=O)N[C@H](C(=O)N[C@@H](CC(C)C)C(=O)N[C@@H](CCCCN)C(=O)N[C@@H](C)C(N)=O)C(C)C)[C@@H](C)O [DD13] (H-ALWKTLLKKVLKA-NH2; N-terminus assumed) | ~100 | about 3 fold | 27±0.5 micrograms peptide per square centimeter |  |
| YSPWTNF (C-terminal amide) [RIP, reference compound] |  |  | 6.5±2.5 micrograms peptide per square centimeter | 6.5±2.5 |

Peptide text beside a SMILES is read from it.
